Our source for the binding values is paper PMC5392680.

In the assay the target is T1, FLAG-cyclin F (pCMV-FLAG-cyclin F) (human) (UniProt P41002).
T1 sequence: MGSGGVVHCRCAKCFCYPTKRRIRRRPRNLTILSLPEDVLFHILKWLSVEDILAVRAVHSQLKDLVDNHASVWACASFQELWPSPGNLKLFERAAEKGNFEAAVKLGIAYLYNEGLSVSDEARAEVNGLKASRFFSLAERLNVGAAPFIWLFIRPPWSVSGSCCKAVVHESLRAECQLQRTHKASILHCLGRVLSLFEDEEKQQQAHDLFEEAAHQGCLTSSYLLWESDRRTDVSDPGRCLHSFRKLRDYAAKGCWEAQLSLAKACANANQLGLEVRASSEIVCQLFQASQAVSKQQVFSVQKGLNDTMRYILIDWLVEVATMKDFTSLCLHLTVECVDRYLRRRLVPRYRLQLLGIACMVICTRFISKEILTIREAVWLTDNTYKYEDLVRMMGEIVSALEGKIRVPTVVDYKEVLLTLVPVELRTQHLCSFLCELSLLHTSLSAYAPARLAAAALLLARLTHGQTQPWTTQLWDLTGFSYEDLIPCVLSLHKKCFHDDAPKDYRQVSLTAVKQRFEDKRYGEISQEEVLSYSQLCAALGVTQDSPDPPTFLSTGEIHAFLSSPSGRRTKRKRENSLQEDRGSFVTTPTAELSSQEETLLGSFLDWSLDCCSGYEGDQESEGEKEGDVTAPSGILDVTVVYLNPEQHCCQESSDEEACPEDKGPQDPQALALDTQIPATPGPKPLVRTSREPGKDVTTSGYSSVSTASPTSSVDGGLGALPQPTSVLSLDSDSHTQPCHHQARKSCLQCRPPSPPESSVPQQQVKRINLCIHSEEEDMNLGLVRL
Kind of assay: co-IP; HEK293T cells co-transfected with cyclin F and wild-type or CY Mut Vif constructs, lysates 48 h post-transfection; IP with cyclin F or Vif antibody, protein A- and G-agarose beads, immunoblot. For orientation: Immunoblotting shows a protein as a band on a membrane.

Results are given in words; binding and its absence hold for the method and conditions named. In cells and extracts the contact can be indirect. Where a sequence is shown, tags or fusion partners need not be part of it.

For the substance “myc-Vif (RKL/AAA) point mutant, CY Mut Vif (HIV-1 NL4-3)”, the binding result is recorded as “no binding”.
